# Screening data, single-dose tests

Chains of the proteins cited; added tags and fusions are not shown. Residues count along the entry.
UniProt A4I591, 1-473: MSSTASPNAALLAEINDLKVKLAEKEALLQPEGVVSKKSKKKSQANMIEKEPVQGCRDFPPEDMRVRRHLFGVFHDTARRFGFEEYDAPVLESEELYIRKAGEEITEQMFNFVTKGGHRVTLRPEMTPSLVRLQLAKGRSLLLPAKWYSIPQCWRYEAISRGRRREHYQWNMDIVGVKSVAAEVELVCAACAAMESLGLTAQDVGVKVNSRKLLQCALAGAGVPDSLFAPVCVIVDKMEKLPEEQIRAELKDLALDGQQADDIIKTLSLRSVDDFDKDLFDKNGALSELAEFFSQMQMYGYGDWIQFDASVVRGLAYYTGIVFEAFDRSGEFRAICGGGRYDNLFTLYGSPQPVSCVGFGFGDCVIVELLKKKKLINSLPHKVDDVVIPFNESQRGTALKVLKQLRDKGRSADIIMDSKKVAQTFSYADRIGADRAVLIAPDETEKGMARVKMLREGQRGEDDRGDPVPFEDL
UniProt P9WNZ1, whole entry: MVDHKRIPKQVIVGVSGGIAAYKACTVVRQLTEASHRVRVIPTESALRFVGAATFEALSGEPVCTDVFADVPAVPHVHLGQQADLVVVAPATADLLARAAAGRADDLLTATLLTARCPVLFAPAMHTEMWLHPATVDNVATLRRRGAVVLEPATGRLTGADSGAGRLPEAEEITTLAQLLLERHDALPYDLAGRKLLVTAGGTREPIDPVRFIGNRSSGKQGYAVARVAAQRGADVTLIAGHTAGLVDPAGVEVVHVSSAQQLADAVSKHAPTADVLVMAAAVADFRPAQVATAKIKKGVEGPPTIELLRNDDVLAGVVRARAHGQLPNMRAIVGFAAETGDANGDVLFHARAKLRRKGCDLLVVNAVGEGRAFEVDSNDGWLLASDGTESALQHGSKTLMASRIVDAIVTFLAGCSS
UniProt P9WFT3, whole entry: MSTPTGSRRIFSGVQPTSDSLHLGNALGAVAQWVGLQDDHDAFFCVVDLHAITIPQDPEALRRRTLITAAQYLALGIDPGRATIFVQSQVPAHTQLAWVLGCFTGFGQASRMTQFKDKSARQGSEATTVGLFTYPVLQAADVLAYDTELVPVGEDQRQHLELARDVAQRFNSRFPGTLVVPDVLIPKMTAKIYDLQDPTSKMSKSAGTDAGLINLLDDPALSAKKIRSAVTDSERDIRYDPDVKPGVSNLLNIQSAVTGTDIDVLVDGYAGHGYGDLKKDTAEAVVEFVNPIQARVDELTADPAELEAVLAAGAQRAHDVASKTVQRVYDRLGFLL

From ChEMBL document CHEMBL3988442, “University of Dundee, Small-Polar-MMV Screening Library” (2021).

The filed quantity is “Percent Effect” (%). How 0% and 100% were set is not recorded. Most values in the screen are low, and negative values occur. The compounds are a random part of those screened. Two or more numbers in one place are separate tests of the same structure; such repeats can differ widely.

LiHisRS: 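Histidine-tRNA ligase, Leishmania infantum (UniProt A4I591). Enzyme assay of histidyl-tRNA synthetase; the read-out is not stated. Compounds at 30 µM. The record gives no direction; compounds that gave an IC50 in retests scored well above the rest, so higher reads as stronger inhibition. The assay is labelled LdHisRS but filed under L. infantum. Size under these conditions: about 69,000 compounds, about 410 of them at 50% or above in at least one test.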
CoaBC: 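Coenzyme A biosynthesis protein CoaBC, Mycobacterium tuberculosis (UniProt P9WNZ1). Enzyme assay of CoaBC with a phosphate dye (Biomol Green) read at 650 nm. Tested at 30 µM. Direction is inferred from only a few compounds that gave an IC50; most scored high, so higher reads as stronger inhibition. Most strong results did not repeat in a second test. Of about 67,000 compounds tested this way, about 40 (0.06%) reached 50% or more in at least one test.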
MtTrpRS: 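Tryptophan-tRNA ligase, Mycobacterium tuberculosis (UniProt P9WFT3). Enzyme assay of tryptophanyl-tRNA synthetase; the read-out is not stated. Tested at 10 µM. Direction is not recorded; retested compounds ran higher, which suggests that high means inhibition. Of about 65,000 compounds tested this way, about 64 (0.098%) reached 50% or more in at least one test.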

* O=C(CN1CCCCCCC1=O)NCc1ccccn1 | LiHisRS: 3.81%; CoaBC: 5.806%; MtTrpRS: -0.08224%
* Cc1cc(CN2CC[C@H]3C[C@H](C(=O)Nc4cccnc4C)O[C@@H]3C2)no1 | LiHisRS: 0%; CoaBC: 2.284%; MtTrpRS: -1.235%
* CC1=N[C@@]2(CC[C@@H]3CN(CC4CC4)C[C@@H]32)C(=O)N1CC1CC1 | LiHisRS: 8.257%; CoaBC: 2.353%; MtTrpRS: -3.814%
* O=C(CSc1ccccn1)N1C[C@H]2CC[C@@H]1CN(Cc1cscn1)C2 | LiHisRS: 5.714%; CoaBC: -7.895%; MtTrpRS: -0.2506%
* Cn1cc2ncn(CCC3CCN(Cc4ccccc4)C3)c(=O)c2n1 (stereo not shown) | LiHisRS: 20.41%; CoaBC: 8.726%; MtTrpRS: 4.717%
* O=C(Cc1csc(-c2ccoc2)n1)NCCC(=O)N1CCCCC1 | LiHisRS: 32.86%; CoaBC: 13.32%; MtTrpRS: 3.43%
* Cc1cc(C)n(C2CCCN(C(=O)c3ccn(C)c(=O)c3)C2)n1 (stereo not shown) | LiHisRS: 3.306%; CoaBC: -3.672%; MtTrpRS: 1.383%
* CCc1nnc2n1CC(CNCc1ccncc1)CC2 (stereo not shown) | LiHisRS: 18.27%; CoaBC: 7.595%; MtTrpRS: -8.72%
* Cc1cccc(C2CCCN(C(=O)CN3C(=O)CCNC3=O)C2)c1 (stereo not shown) | LiHisRS: 11.67%; CoaBC: 3.659%; MtTrpRS: 0.000008%
* Cc1cc(NC(=O)CN2CCCC2c2noc(C3CC3)n2)no1 (stereo not shown) | LiHisRS: 19.23%; CoaBC: 10.87%; MtTrpRS: -0.07128%
* CNC(=O)C(C)S(=O)(=O)Cc1csc(-c2cccs2)n1 (stereo not shown) | LiHisRS: 21.43%; CoaBC: -4.423%; MtTrpRS: 2.016%
* O=C(NCC1(O)CCOCC1)c1ccn(-c2ccccc2F)n1 | LiHisRS: 11.67%; CoaBC: 7.656%; MtTrpRS: -2.816%
* O=C(NCC(O)c1cccc(F)c1)c1sccc1OC(F)F (stereo not shown) | LiHisRS: 8.571%; CoaBC: 11.45%; MtTrpRS: 0.8396%
* CCCS(=O)(=O)CC(=O)Nc1ccsc1 | LiHisRS: 7.843%; CoaBC: 5.521%; MtTrpRS: 2.056%
* COc1cccc2c1OCCCN(c1nc(C)nc3c1CCNCC3)C2 | LiHisRS: 25.4%; CoaBC: -1.988%; MtTrpRS: 3.633%
* Nc1ccncc1-n1cc(CCO)cn1 | LiHisRS: 36.28%; CoaBC: 0% and 26.11%; MtTrpRS: -1.926%
* NC(=O)N1CCCN(C(=O)Nc2cc(-n3cccc3)ccc2F)CC1 | LiHisRS: 16.67%; CoaBC: -4.126%; MtTrpRS: 3.008%
* Cc1nnc(CCNC2CCN(c3ncnc4c(C)csc34)CC2)s1 | LiHisRS: 27.36%; CoaBC: -8.182%; MtTrpRS: 0.7457%
* COc1cc(F)c(C(=O)NCc2cc(C)on2)c(F)c1 | LiHisRS: 14.75%; CoaBC: -2.558%; MtTrpRS: -2.362%
* CN(C)c1ncccc1CNc1snc(Cl)c1C#N | LiHisRS: 12.35%; CoaBC: 6.018%; MtTrpRS: 0.3856%
* COCCN1CCO[C@@H]2CN(Cc3sccc3C)C[C@@H]2C1 | LiHisRS: 0.8403%; CoaBC: 0.1626%; MtTrpRS: -2.383%
* Cc1ccsc1C(Cc1ccccc1)NC(=O)CNC(=O)C1CC1 (stereo not shown) | LiHisRS: 21.92%; CoaBC: 9.96%; MtTrpRS: 4.871%
* Cn1cc(C2CCCN2CCC(=O)N2CCc3sccc3C2)cn1 (stereo not shown) | LiHisRS: 20.18%; CoaBC: 0.8149%; MtTrpRS: -1.977%
* Cn1cccc1C(=O)N1CCc2ncc(Cn3cccn3)n2CC1 | LiHisRS: 9.434%; CoaBC: 1.142%; MtTrpRS: 4.512%

The last 3 entries again:

| SMILES | LiHisRS | CoaBC | MtTrpRS |
|---|---|---|---|
| `Cc1ccsc1C(Cc1ccccc1)NC(=O)CNC(=O)C1CC1` (stereo not shown) | 21.92 | 9.96 | 4.871 |
| `Cn1cc(C2CCCN2CCC(=O)N2CCc3sccc3C2)cn1` (stereo not shown) | 20.18 | 0.8149 | -1.977 |
| `Cn1cccc1C(=O)N1CCc2ncc(Cn3cccn3)n2CC1` | 9.434 | 1.142 | 4.512 |